Data as given in PubChem BioAssay AID1671195 (Yale University, 2021)

- Test: 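Regulators of LDL receptor activity judged by labelled LDL uptake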 (primary screen)
- Cells: human Huh7 hepatoma cells
- Knock-down reagent: siRNA pool against human genes, 18 nM
- Timing: about 2 to 2.5 days of knockdown, then 8 h LDL uptake
- Treatment: DiI-labelled LDL at 30 µg/ml for 8 h, in lipoprotein-deficient serum medium
- Measured: 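Fluorescent LDL signal imaged in cells, scaled to the plate median, robust z-score for each replicate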
- Scale: robust z-score: higher = more LDL uptake after knockdown
- Active means: 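a gene counts as active if at least two replicate z-scores exceed ±2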
This is a random part of about 22,000 deposited reagents. About 1,510 of all reagents (6.9%) count as active. 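Active includes knockdowns raising or lowering LDL uptake; positive z-scores mean more uptake, negative mean less.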 Unmarked entries are inactive. Reagent sequences are not shown.

Gene,"robust z-score, replicate 1","robust z-score, replicate 2","robust z-score, replicate 3"
GCA (GeneID 25801),2.58,1.29,1.31
LOC442282 (retired record) (GeneID 442282),-1.08,-1.38,-0.749
OR8K3 (GeneID 219473),1.42,1.24,2.12
TPT1 (GeneID 7178),-0.282,-0.994,-0.44
RASA3 (GeneID 22821),-0.542,-0.655,-0.381
MUC5B (GeneID 727897),1.28,1.8,1.15
C9orf50 (GeneID 375759),0.345,0.102,0.0756
CEACAM5 (GeneID 1048),-1.66,-1.63,-0.0103
RPUSD3 (GeneID 285367),0.252,0.337,0.446
CFAP58 (GeneID 159686),0.339,1.42,0.525
RAB3D (GeneID 9545),0.0526,-0.585,-0.0114
UBR1 (GeneID 197131),0.163,1.33,0.324
VPS25P1 (GeneID 441899),0.0846,0.235,-0.0995
SERPINB7 (GeneID 8710),-0.486,-0.282,1.72
FRG2 (GeneID 448831),0.758,1.17,1.13
DUS3L (GeneID 56931),-0.404,-0.496,0.874
NPIPA1 (GeneID 9284),-1.2,-1.2,-1.36
MTERF2 (GeneID 80298),-0.672,-1.43,-1.12
OR4K14 (GeneID 122740),-0.754,-0.691,-0.948
ACACB (GeneID 32),1.22,0.0306,-0.463
AKT3 (GeneID 10000),1.01,0.215,0.25
CTSE (GeneID 1510),1.98 (active),1.74,2.51
WHAMM (GeneID 123720),2.34 (active),1.24,2.35
C2orf69 (GeneID 205327),0.581,-0.111,0.28
CCDC110 (GeneID 256309),-1.06,-1.01,-1.08
TLN2 (GeneID 83660),-0.884,-0.665,-0.162
RHBDF1P1 (GeneID 131973),-1.26,-1.22,-1.56
TNFRSF11A (GeneID 8792),1.9,1.22,0.908

In a second layout: 2 of the entries above.
Gene | robust z-score, replicate 1 | robust z-score, replicate 2 | robust z-score, replicate 3
VPS25P1 (GeneID 441899) | 0.0846 | 0.235 | -0.0995
SERPINB7 (GeneID 8710) | -0.486 | -0.282 | 1.72

The list goes on.
Gene,"robust z-score, replicate 1","robust z-score, replicate 2","robust z-score, replicate 3"
ZMAT4 (GeneID 79698),-0.58,-0.478,-1.02
SERPINA4 (GeneID 5267),0.116,-0.446,0.613
CELSR3 (GeneID 1951),0.14,-0.0961,0.409
TMEM51 (GeneID 55092),-1.61,-2.23,-1.93
DNAJB4 (GeneID 11080),0.707,1.01,0.672
SLC25A27 (GeneID 9481),-0.678,-0.541,-0.393
CLVS2 (GeneID 134829),0.621,1.95,1.5
SEPTIN11 (GeneID 55752),-1.06,-0.98,-0.734
LOC400576 (retired record) (GeneID 400576),0.296,0.912,1.07
CCT7P1 (GeneID 442267),0.441,0.445,0.763
CLEC2B (GeneID 9976),0.43,-0.783,0.508
CHTF8 (GeneID 54921),-1.49,-0.833,-0.726
LRRC1 (GeneID 55227),2.23 (active),4.08,-0.0675
ARHGEF34P (GeneID 728377),1.23,-0.0198,0.489
LOC401454 (retired record) (GeneID 401454),-1.17,-2.72,-0.996
RAB42 (GeneID 115273),-0.0408,1.18,0.662
NISCH (GeneID 11188),0.00963,0.21,1.21
ANGEL2 (GeneID 90806),0.636,0.348,0.185
